PubChem BioAssay AID1259308, NCATS – 2017
Aim: 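Knock-downs that increase output of a recombinant reporter protein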 (primary screen). Cell system: human HEK293 embryonic kidney cells stably expressing firefly luciferase (HEK-CMV-Luc2-Hygro). Reagents: single siRNA against human genes, 0.8 pmol siRNA per well. Duration: 72 h. Measurement: 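Luciferase light (ONE-Glo) measured on one replicate plate set and viability (CellTiter-Glo) on the other, scaled to a negative control siRNA, with robust z-scores and luciferase per cell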. Direction: total luciferase, z-score: higher = more reporter protein produced. Hit rule: 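An siRNA counts as active if its total luciferase robust z-score exceeds 3; genes with two or more such siRNAs out of three were retested with fresh siRNAs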. Calls: active = raised luciferase; inactive = no rise.
The deposit covers about 59,000 reagents; this is a random part of them. Over the whole deposit, about 1,510 (2.6%) were called active. 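Calls use total luciferase alone and ignore viability, so some active siRNAs may act by altering cell number.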 A number with no mark means an inactive call. Reagents against one gene are numbered here. Not all columns of the deposit are shown. No sequences are given here.

gene symbol | siRNA no. | total luciferase, z-score
CHRNA7 | 1 | -1.2
CHRNA7 | 2 | -1.34
CHRNA7 | 3 | 0.938
ATP1B1 | 1 | -0.263
ATP1B1 | 2 | -1.03
ATP1B1 | 3 | -1.73
ZNF878 | 1 | 0.817
ZNF878 | 2 | -0.142
ZNF878 | 3 | 2.3
BPGM | 1 | -1.05
BPGM | 2 | -1.3
BPGM | 3 | -0.677
C1QL4 | 1 | 0.368
C1QL4 | 2 | 0.0493
C1QL4 | 3 | -0.866
ARID4B | 1 | -1.09
ARID4B | 2 | -1.33
ARID4B | 3 | -1.11
TTC31 | 1 | -0.465
TTC31 | 2 | -0.715
TTC31 | 3 | 0.577
SMARCC2 | 1 | 0.311
SMARCC2 | 2 | 0.082
SMARCC2 | 3 | -1.22
NDUFB11 | 1 | 0.0421
NDUFB11 | 2 | 0.0294
NDUFB11 | 3 | 2.31
NIN | 1 | 0.418
NIN | 2 | -0.743
NIN | 3 | 2.39
TMEM216 | 1 | 1.16
TMEM216 | 2 | 0.589
TMEM216 | 3 | 0.903
FTSJ3 | 1 | -1.85
FTSJ3 | 2 | -0.21
FTSJ3 | 3 | -0.952
ACTR5 | 1 | -0.393
ACTR5 | 2 | 0.283
ACTR5 | 3 | 2.59
